From PubChem BioAssay AID504467 (National Center for Advancing Translational Sciences (NCATS), 2011)
In all, about 330,000 compounds went through this assay and about 7,700 (2.3%) were called active. This list was built around the results that the source calls inconclusive (neither active nor inactive); the mix of calls is not that of the screen. The call rests on the fitted dose curve; in most records, active means well fitted inhibition curve with a large enough effect; inconclusive means small, poorly fitted or top-dose-only effect, or effect the other way; inactive means flat fitted curve, though single readings scatter. Potencies beside an inconclusive call are fits to weak or partial responses and may not hold up.

assay: qHTS screen for small molecules that inhibit ELG1-dependent DNA repair in human embryonic kidney (HEK293T) cells expressing luciferase-tagged ELG1; details: HEK293T ELG1-luciferase reporter, luminescence, 16 h, DNA damage induced by 5-fluorouridine; series mostly up to 46.1 µM; further: nearly all actives have a fitted effect of over 55% in size
Summary of the method: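 Step one: seed 2,000 cells per well. Step two: pin-transfer compound or DMSO alongside 5-fluorouridine. Step three: incubate 16 hr, 37 °C, 5% CO2. Step four: add ONE-Glo, wait 30 min, read luminescence.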
Potency means the concentration at half of the fitted maximal effect.

SMILES	Potency
CCCCCOc1ccc(/C=c2\sc3nc(=O)c(-c4ccccc4)nn3c2=O)cc1OC	inconclusive: 8.2 µM [activator, partial curve]
O=[N+]([O-])c1cnccc1NC1CCCCC1	inactive
O=C(Cc1cccs1)Nc1nnc(Cc2ccccc2)s1	inactive
CCN(CC)S(=O)(=O)c1ccc(N(C)C)c(NC(=O)C2CCCC2)c1	inactive
Cc1ccc(NCc2nnc(SCCN3CCCCC3)n2CC2CCCO2)c(C)c1 (stereo not given)	inconclusive: 1.16 µM [inhibitor, single point]
N#C/C(=C/c1ccc(Sc2nc3ccccc3[nH]2)o1)c1ccccc1F	inconclusive: 18.4 µM [inhibitor, single point]
COc1cccc(CN(C)C(=O)Cc2c[nH]c3ccccc23)c1	inactive
COc1ccc2cc(-c3cccnc3)ncc2c1	inconclusive: 18.3 µM [activator, partial curve]
Cc1ccccc1NC(=O)/C(C#N)=C/c1ccc[nH]1	inconclusive: 13 µM [activator, partial curve]
COc1cc(CN2CCCCCC2)cc(OC)c1OC	inactive
CC(/C=N/n1c(-c2ccccn2)n[nH]c1=S)=C\c1ccccc1	inconclusive: 29.1 µM [inhibitor, single point]
CC(NC(=O)c1cc(-c2ccccn2)nc2ccc(Cl)cc12)C1CCCO1 (stereo not given)	inconclusive: 2.31 µM [inhibitor, single point]
CCC(C)(C)C1CCC(=NNC(=O)c2ccoc2C)CC1 (stereo not given)	inconclusive: 11.6 µM [activator, partial curve]
Cc1cc(C)c(OCC(=O)OCC(=O)N2c3ccccc3CC2C)c(C)c1 (stereo not given)	inconclusive: 2.91 µM [activator, full curve, poor fit]
C=CCn1c(-c2ccc(C)cc2)nc2ccccc21	inconclusive: 20.6 µM [activator, partial curve]
O=C1CCCC(=O)C1C1c2ccccc2CCN1C(=O)CCl (stereo not given)	inactive
Cc1cc(NC(=O)c2ccc3c(c2)OCCO3)no1	inconclusive: 1.46 µM [activator, partial curve]
Cc1ccc(-n2ccc(-c3nn(-c4ccccc4)ccc3=O)n2)cc1	inconclusive: 29.1 µM [inhibitor, single point]
C=CCN(c1ccccc1)S(=O)(=O)c1cccc(C(=O)N(CC)CC(=O)Nc2c(F)cccc2F)c1	inconclusive: 32.6 µM [inhibitor, single point]
O=C(Nc1cccc(O)c1)c1c(O)c2ccccc2[nH]c1=O	inconclusive: 4.61 µM [activator, single point]
O=C(NCCN1CCOCC1)c1ccc(-c2ccccc2)cc1	inconclusive: 20.6 µM [activator, single point]
COc1cc(/C=C2/C(=O)NN(c3cccc(Cl)c3)C2=O)cc(OC)c1O	inactive
COc1ccccc1NC(=O)C(=O)NNS(=O)(=O)c1ccc2ccccc2c1	inactive
OC(COC(c1ccc(F)cc1)c1ccc(F)cc1)CN1CCc2ccccc2C1 (stereo not given)	inactive

Exported field by field: entries from further up.
O=C(NCCN1CCOCC1)c1ccc(-c2ccccc2)cc1
  Potency: inconclusive: 20.6 µM [activator, single point]
COc1cc(/C=C2/C(=O)NN(c3cccc(Cl)c3)C2=O)cc(OC)c1O
  Potency: inactive

Remaining list, next part

SMILES	Potency
Cc1nn(-c2ccccn2)c2c1C(c1c(F)cccc1Cl)C1=C(N2)c2ccccc2C1=O (stereo not given)	active: 14.6 µM
CN(CC(=O)Nc1ccc(F)c(F)c1F)C(=O)c1ccc2c(c1)OCCO2	inactive
O=C(c1ccc2c(c1)OCO2)N1CCCC1	inactive
Cc1nn(C)cc1/C=N/NC(=O)c1ccco1	inconclusive: 18.3 µM [activator, single point]
COc1ccc(C2=CCN3CCCCC3C2)c(-c2ccc(OC)c(OC)c2)c1 (stereo not given)	inconclusive: 36.6 µM [activator, partial curve, poor fit]
O=C(Nc1nc(-c2ccc(Oc3ccccc3)cc2)cs1)C1=COCCO1	inconclusive: 13 µM [inhibitor, partial curve, poor fit]
Cc1ccc(-c2noc(C3CCCN(C(=O)c4ccccc4)C3)n2)o1 (stereo not given)	inconclusive: 16.4 µM [activator, partial curve]
Cc1ccc(S(=O)(=O)NC(=O)Nc2nccs2)cc1	inconclusive: 29.1 µM [activator, single point]
Cc1ccc2nc3c(cc(C#N)c(=N)n3CC3CCCO3)c(=O)n2c1 (stereo not given)	inactive
CC(C)(C)c1cc(CSC(=S)NC2CCS(=O)(=O)C2)c(Br)c(C(C)(C)C)c1 (stereo not given)	inconclusive: 25.9 µM [inhibitor, single point]
O=C(CSc1nnc(C2COc3ccccc3O2)o1)N1CCN(c2ccccc2)CC1 (stereo not given)	inconclusive: 6.51 µM [activator, single point]
O=C(Nc1ccc(NC(=O)C23CC4CC(CC(C4)C2)C3)cn1)c1ccco1	inconclusive: 2.31 µM [activator, full curve]
COc1ccc(NC(=S)NCc2ccccc2Cl)c(OC)c1	inconclusive: 23.1 µM [inhibitor, single point]
Cc1ccc(Cn2ncc3c(NCCCN4CCOCC4)ncnc32)cc1	inactive
CCc1ccc(NC(=O)c2ccc(OC)c([N+](=O)[O-])c2)cc1	inactive
CCSc1nsc(NC(=O)Nc2ccc(F)cc2F)n1	inconclusive: 4.47 µM [activator, single point]
CCn1c(/C=C/c2cc(Br)ccc2O)nc2ccccc2c1=O	inconclusive: 29.1 µM [inhibitor, single point]
O=C(CSc1nc2[nH]ncc2c(=O)n1-c1ccccc1Br)NCc1ccco1	inconclusive: 20.6 µM [inhibitor, single point]
CCCCOc1ccc(C(=O)Oc2cccnc2)cc1	inactive
Cc1cc(-c2nn(-c3ccccc3)cc2/C=C2\SC(N)=NC2=O)ccc1OC(C)C	inconclusive: 29.1 µM [inhibitor, single point]
O=C(CN1C(=O)NC2(CCCCCC2)C1=O)c1ccc(F)cc1	inconclusive: 17.8 µM [activator, single point]
O=C(COc1ccc(-n2cnnn2)cc1)Nc1cccc(Cl)c1Cl	inactive
O=C1OCC2=C1C(c1ccccc1)CC(=O)N2c1cccc(F)c1 (stereo not given)	inconclusive: 1.16 µM [inhibitor, single point]
CCCn1c2ccccc2c2nnc(SCC(=O)Nc3nnc(CC(=O)OCC)s3)nc21	inconclusive: 20.6 µM [inhibitor, single point]

SMILES	Potency
CC1(C)O[C@@H]2[C@H](O1)[C@@H](COS(=O)(=O)O)O[C@H]2n1cnc2c(N)ncnc21	inconclusive: 14.6 µM [activator, partial curve, poor fit]
O=C(COC(=O)c1cccc(Cl)c1)Nc1ccc2[nH]c(=O)[nH]c2c1	inconclusive: 0.259 µM [activator, single point]
CCCCCCCCCCCCCCCC[N+](C)(C)CCN(Cc1ccc(OC)cc1)c1ncccn1	inconclusive: 15.8 µM [inhibitor, single point]
CC(C)(C)n1nnnc1C(c1cccs1)N(Cc1cccnc1)Cc1ccccc1Cl (stereo not given)	inconclusive: 23.1 µM [inhibitor, partial curve, poor fit]
COc1ccc2nc(NC(=S)NC(=O)c3ccco3)sc2c1	inconclusive: 5.17 µM [activator, partial curve]
CC(C)Cn1c(N)c(C(=O)COC(=O)C2CC(=O)N(Cc3ccccc3Cl)C2)c(=O)n(C)c1=O (stereo not given)	inconclusive: 20.6 µM [inhibitor, single point]
S=C(N/N=C/c1cccc2ccccc12)Nc1cccc(Cl)c1	inactive
CC(C)CC(=O)Nc1ccccc1N1CCN(c2ccc(F)cc2)CC1	inconclusive: 23.1 µM [inhibitor, single point]
O=C(Cn1cccn1)c1ccccc1	inactive
Cc1ccccc1NC(=O)NC1(C(=O)N2CCC(O)CC2)CCCCC1	inconclusive: 6.51 µM [inhibitor, single point]
CCC1=C(OC(=O)N(CC)CC)N2C(=O)OC(=NCc3ccccc3)[C@]2(C)[C@H]2C1=CC[C@H]1C(=O)NC(=O)[C@H]12	inactive
COc1ccc(OC)c(/C=C2\SC(=S)N(Cc3cccnc3)C2=O)c1	inactive
Cn1cnnc1SCc1ccc(C(=O)N=Nc2c(O)n(Cc3ccc(Cl)cc3)c3ccccc23)cc1	active: 9.2 µM
CC(=O)c1ccc(NS(=O)(=O)c2ccc3ccccc3c2)cc1	inactive
CC(C)(C)c1nc(N2CCN(C(=O)c3ccco3)CC2)c2nnn(Cc3ccccc3)c2n1	inconclusive: 23.1 µM [inhibitor, partial curve, poor fit]
CCOc1ccccc1C1CC(=O)Nc2cc(OC)c(OC)c(OC)c21 (stereo not given)	inconclusive: 16.4 µM [activator, partial curve]
Cc1cc(C)nc(Nc2n[nH]c(-c3ccccc3N)n2)n1	inconclusive: 1.46 µM [activator, partial curve]
COC(=O)c1sc(NC(=O)C2CCCO2)c(C(=O)OC)c1C (stereo not given)	inconclusive: 20.6 µM [inhibitor, single point]
CN(C)C(=O)c1cccn(Cc2ccc(C(F)(F)F)cc2)c1=O	inactive
c1ccc(CCc2nc(-c3cccnc3)no2)cc1	inconclusive: 20.6 µM [activator, partial curve, poor fit]
O=C(Cn1cnc2c(cnn2-c2ccccc2)c1=O)Nc1cc(S(=O)(=O)N2CCOCC2)ccc1Cl	active: 23.1 µM
Cc1cc(NS(=O)(=O)c2ccc(NC(=O)CN3C(=O)NC(C)(c4ccccc4)C3=O)cc2)nc(C)n1 (stereo not given)	inconclusive: 18.3 µM [activator, partial curve, poor fit]

3 structures from above, sorted by molecular weight, rising.
SMILES	Potency
CC(C)(C)c1nc(N2CCN(C(=O)c3ccco3)CC2)c2nnn(Cc3ccccc3)c2n1	inconclusive: 23.1 µM [inhibitor, partial curve, poor fit]
CC(C)(C)n1nnnc1C(c1cccs1)N(Cc1cccnc1)Cc1ccccc1Cl (stereo not given)	inconclusive: 23.1 µM [inhibitor, partial curve, poor fit]
CCCCCCCCCCCCCCCC[N+](C)(C)CCN(Cc1ccc(OC)cc1)c1ncccn1	inconclusive: 15.8 µM [inhibitor, single point]
